# Data published in PubChem BioAssay AID493014 (National Center for Advancing Translational Sciences (NCATS), 2011).
# Hit rate of the full screen: of about 340,000 compounds, about 170 (0.05%) were called active. Inconclusive results, whose numbers are uncertain, are shown with a selection of clear calls. Calls follow the shape of the dose curve; as a rule, active = well fitted inhibition curve with a large enough effect in the signal ratio, with a control signal flat (not every such curve was filed as active); inconclusive = small, poorly fitted or top-dose-only effect, or effect the other way, or a change in a side signal; inactive = flat fitted curve, though single readings scatter; the % refers to the signal ratio. Potencies beside an inconclusive call are fits to weak or partial responses and may not hold up.
# Assay: qHTS Assay to Find Inhibitors of Chronic Active B-Cell Receptor Signaling;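 as to activity change, negative = inhibition: plate controls were basal doxycycline-induced cells for no effect and cells given 10 µM MG132 for full effect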
# Settings: ABC-DLBCL IkBa-CBG/CBR reporter, luminescence ratio (green luciferase fused to IkBa over red control in TMD8 lymphoma cells), 4 h; activity change, negative = inhibition: at 46.1 µM (top of the series) unless noted
# Method in brief: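 Compounds up to 46 uM were incubated four hours with TMD8 cells whose green CBG68 luciferase is fused to IkappaBalpha; red CBR luminescence normalised the signal, and concentration-effect curves were fitted to fusion, red and ratio data.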
# Potency is read from the fitted curve at half-maximal effect.
Structure (SMILES),"activity change, negative = inhibition",Potency
COc1ccccc1CCNC(=O)Cn1ccc2cc(S(=O)(=O)N3CCC(C)CC3)ccc21,inconclusive: 2.46%,–
COc1ccc(-c2noc(CCC(=O)Nc3ccc(C)c(C)c3)n2)cc1,inactive: 15.5%,–
COC(=O)c1sc(NC(=S)NC(=O)c2ccccc2Cl)nc1C,inconclusive: -0.723%,–
CC(=O)Cc1nsc(NC(=O)c2ccc(-c3cc(Cl)ccc3Cl)o2)n1,inconclusive: -11.7%,–
NCCCC[C@H]1CNC(=O)C(=O)N1CCc1cccc2ccccc12,inconclusive: 2.14%,–
N#Cc1ccc(-c2csc(NC(=O)c3ccc(N4C(=O)CCC4=O)cc3)n2)cc1,inconclusive: 4.79%,–
CC(=O)c1cccc(NC(=O)c2cccc(NC(=O)c3ccco3)c2)c1,inconclusive: 3.84%,–
CCOC(=O)c1nc[nH]c1C,inconclusive: 4.34%,–
CCCCc1cc(=O)oc2c(C)c(OCC(=O)N3CCC(C(=O)O)(c4ccccc4)CC3)ccc12,inconclusive: -1.66%,–
COc1ccc(-c2csc(NC(=O)c3ccco3)n2)cc1,–,"inconclusive: 0.58 µM [rising, full curve, poor fit]"
CCN1CCN(c2nc(Nc3cccc(OC)c3)nc(N)c2[N+](=O)[O-])CC1,inconclusive: -9.25%,–
COc1ccccc1CCn1cnc2c3cc(C)ccc3n(C)c2c1=O,inconclusive: -13.4%,–
COc1ccc(-c2nc(-c3cccnc3)no2)cc1,–,"inconclusive: 28.2 µM [falling, single point]"
CCCN(CCC)c1c([N+](=O)[O-])c(=O)oc2ccccc12,–,"inconclusive: 20.6 µM [falling, partial curve]"
Cc1cc(Br)ccc1NC(=O)c1sc2ncnc(N3CCN(c4ccccn4)CC3)c2c1C,inconclusive: 0.105%,–
Cc1cc(C)c2c(c1)/C(=N/NC(=S)Nc1ccc(F)cc1)CCC2,inconclusive: -0.263%,–
CCCCC(CC)CO (stereo not drawn),inactive: 4.28%,–
CCN1c2ccc(S(=O)(=O)N3CCOCC3)cc2N(Cc2ccc(OC)cc2)C1C (stereo not drawn),inconclusive: -0.624%,–
CCCCCCOC(=O)c1ccccc1NC(=O)/C=C/C(=O)O,inconclusive: 17.6%,–
CNC(=S)N/N=C/c1c2ccccc2c(Cl)c2ccccc12,–,"inconclusive: 35.5 µM [falling, single point]"
CCOc1ccc(S(=O)(=O)NCCCn2ccnc2)cc1,inactive: 4.53%,–

# Entries of single compounds, looked up by structure. Order of values: activity change, negative = inhibition	Potency
# COC(=O)c1sc(NC(=S)NC(=O)c2ccccc2Cl)nc1C as listed: inconclusive: -0.723%	–
# CCOC(=O)c1nc[nH]c1C as listed: inconclusive: 4.34%	–
# COc1ccc(-c2noc(CCC(=O)Nc3ccc(C)c(C)c3)n2)cc1 as listed: inactive: 15.5%	–
# Cc1cc(C)c2c(c1)/C(=N/NC(=S)Nc1ccc(F)cc1)CCC2 as listed: inconclusive: -0.263%	–

# Further structures:

Structure (SMILES),"activity change, negative = inhibition",Potency
Cc1ccc(CN(C)C(=O)C2CCN(C(=O)Nc3ccccc3)CC2)o1,inconclusive: 1.49%,–
O=C(O)Cc1sc(Nc2cccc3ccccc23)nc1-c1ccc(Cl)cc1,–,"inconclusive: 10 µM [falling, partial curve]"
Cn1c(COc2ccccc2Br)nc2ccccc21,inconclusive: 0.32%,–
COc1ccc(CN(C)C(=O)CCN2C(=O)c3ccccc3C2=O)c(OC)c1OC,inconclusive: -13.3%,–
O=C(Nc1ccc(NC(=O)c2sc3ccccc3c2Cl)cc1)c1ccco1,inconclusive: 5.36%,–
Cc1cccc(C(=O)N/N=C/c2ccoc2)c1,–,"inconclusive: 17.8 µM [falling, single point]"
COc1ccc(-c2ccc(-c3noc(C)n3)c(OC)n2)cc1,inconclusive: 14.9%,–
NC(=O)c1ccccc1NC(=O)CC12CC3CC(CC(C3)C1)C2,inactive: -3.7%,–
Cc1cccc2sc(NC(=O)CCNS(=O)(=O)c3cccc4nonc34)nc12,inconclusive: 2.4%,–
COc1ccccc1NC(=O)C1=C(C)NC(SCC(=O)Nc2ccc(C(=O)O)cc2)=C(C#N)C1c1cccs1 (stereo not drawn),–,"inconclusive: 35.5 µM [rising, single point]"
COc1ccccc1N1CCN(C2CCN(C(=O)COc3ccccc3)CC2)CC1,inconclusive: 10.3%,–
COc1cccc(-c2cc(C(=O)N3CCN(C(=O)c4ccco4)CC3)on2)c1,inactive: 0.333%,–
Fc1ccc(-c2nc3ccncc3[nH]2)cc1,inconclusive: -16.2%,–
CCOC(=O)c1c(NC(=O)CN2CCN(C(=O)c3ccco3)CC2)sc(C)c1C,inactive: 2%,–
N#Cc1ccc(C(=O)Nc2nnc(-c3ccccn3)o2)cc1,–,"inconclusive: 18.4 µM [falling, partial curve]"
COC(=O)C(CCSC)NC(=O)c1cc2c(n(-c3ccc(C)cc3)c1=O)CCCC2=O (stereo not drawn),–,"inconclusive: 12.6 µM [falling, partial curve]"
CN(CC(=O)Nc1ccccc1Cl)C(=O)CSc1nc2ccccc2s1,inconclusive: -1.75%,–
Cc1sc2ncnc(N3CCC(C(=O)NNC(=O)COc4ccccc4Cl)CC3)c2c1C,inconclusive: -29.9%,–
COc1ccc2c(CC(=O)OCC(=O)NC(=O)c3cccn3C)coc2c1,inconclusive: 1.48%,–
NC(=S)NNc1ccnc2cc(Cl)ccc12,inconclusive: 0.851%,–
O=C(NCCN1CCOCC1)c1cccc(S(=O)(=O)NCc2ccccc2)c1,inactive: -2.49%,–

Structure (SMILES),"activity change, negative = inhibition",Potency
CC(C)C(Sc1nc(-c2ccccc2)cc(-c2ccccc2)c1C#N)C(=O)O (stereo not drawn),–,"inconclusive: 0.891 µM [rising, partial curve]"
O=C1NC(c2ccccc2)=C(c2nc3ccccc3s2)C(c2ccccc2)N1 (stereo not drawn),inconclusive: 5.23%,–
CNC[C@@H](Cc1ccccc1)NC[C@@H](CC1CCCCC1)NCCCc1ccccc1,–,"inconclusive: 17.8 µM [rising, single point]"
COCCN(C(=O)CSc1nnc(C)n1Cc1ccccc1)c1c(N)n(Cc2ccccc2)c(=O)[nH]c1=O,inconclusive: -3.66%,–
N#Cc1ccc(-c2ccco2)nc1SCc1ccccc1,inconclusive: 7.49%,–
O=C(NC1CCCCC1)N1CCCCCC1,inconclusive: -14.9%,–
Cc1cc(C)n(-c2nc3ccccc3nc2Nc2ccc3[nH]c(=O)[nH]c3c2)n1,inconclusive: -0.322%,–
CCCSC1=N/C(=C\c2ccc([N+](=O)[O-])o2)C(=O)S1,inactive: 12.4%,–
CCOC(=O)c1[nH]c(C)c(C(=O)N2CCOCC2)c1C,inconclusive: 2.83%,–
O=C(O)CSc1cc(C(=O)c2cc(F)ccc2O)cn2c(=O)c3c(-c4ccccc4)csc3nc12,inconclusive: 25.6%,–
Oc1ccc2ccccc2c1C=Nc1ccccc1Br,inactive: -15.3%,–
COc1ccc(-n2c(CN3CCC(C)CC3)nc3ccc([N+](=O)[O-])cc3c2=O)c(OC)c1,inconclusive: -5.8%,–
N/C(Cc1ccc(Cl)cc1)=N\OC(=O)c1ccccc1,inconclusive: 14.8%,–
Cc1ccccc1NS(=O)(=O)c1ccc2[nH]cc(C(=O)NCCc3ccccc3)c(=O)c2c1,–,"inconclusive: 3.16 µM [falling, single point]"
C=CCNC(=S)/N=c1\sccn1C,inconclusive: 2.64%,–
CCn1nc(C(=O)Nc2ccc3nc(C)sc3c2)c2ccccc2c1=O,inconclusive: 4.2%,–
CC(C)Oc1cccc(NC(=O)c2cnccc2C(F)(F)F)c1,–,"inconclusive: 0.282 µM [falling, full curve, poor fit]"
CCC(C)(C)n1nnnc1C(c1cc2cc3c(cc2[nH]c1=O)OCO3)N1CCN(C)CC1 (stereo not drawn),inconclusive: -1.87%,–
COc1ccc(C)cc1-n1c(N)c(C#N)c(C#N)c1-c1ccc(OC)c(OC)c1OC,inconclusive: -25.4%,–
COC/C=C/C1=CC2=CC(=O)C(C)(OC(=O)CCC(=O)OC)C(=O)C2=CO1 (stereo not drawn),inconclusive: 5.42%,–
COc1ccc(CNC(=O)CC2C[C@H](C(=O)N3CCOCC3)[C@@]3(CCC4CCCC4)c4[nH]c5ccccc5c4CCN3C2=O)cc1OC (stereo partly drawn),inactive: 0.746%,–

Structure (SMILES),"activity change, negative = inhibition",Potency
COc1cc(Cn2c(C(=O)O)cc3sccc32)cc(OC)c1OC,inconclusive: -3.78%,–
NC(=O)c1ccc(-n2nnnc2Oc2ccccc2C(=O)N2CCOCC2)cc1,inconclusive: -2.72%,–
CCCCS/C(N)=N/N=C/c1cc(C)ccc1O,–,"inconclusive: 23.1 µM [falling, single point]"
O=C(CCCC(=O)c1ccccc1)NCc1ccccc1,inconclusive: 4.15%,–
COC(=O)c1c(C#N)c(N)nc2c1CCCC2,inconclusive: -0.647%,–
CC(=O)NNc1ncnc2c1cnn2-c1ccccc1,inconclusive: 6.5%,–
CN(C)CCCNC(=O)/C(=C\c1ccc(-c2ccc(Br)cc2)o1)NC(=O)c1ccccc1,inconclusive: -21.7%,–
CN(c1ccccc1C(=O)Nc1ccc(CC#N)cc1)S(=O)(=O)c1ccccc1,inconclusive: -0.465%,–
CC(=O)N1CCN(c2nnnn2-c2ccccc2)CC1,inconclusive: -3.98%,–
c1ccc(NCCCNc2ccccc2)cc1,inconclusive: -1.95%,–
O=C1c2ccccc2-c2c1cccc2C(=O)N1CCCCC1,inconclusive: 7.84%,–
CSc1nc(N)c(C#N)c(-c2ccc(Cl)cc2)c1C#N,inconclusive: 0.218%,–
COc1ccc(Cl)cc1NC(=O)CC1S/C(=N/N=C2CCCCCC2)NC1=O (stereo not drawn),–,"inconclusive: 15.8 µM [falling, single point]"
COCCNC(=O)c1onc(CSc2ccccc2)c1C(=O)O,–,"inconclusive: 17.8 µM [falling, partial curve]"
c1cnc2ccc(-c3ccc4ncccc4c3)cc2c1,–,"inconclusive: 22.4 µM [falling, single point]"
c1csc(CSc2nnc3sc4ccccc4n23)c1,–,"inconclusive: 16.4 µM [falling, single point]"
CC(=O)NC1CC2CCCC(C1)N2CC(=O)NCc1ccc(F)cc1 (stereo not drawn),inconclusive: 1.08%,–
Cc1ccc(NC(=O)c2sc3ncnc(N(C)C4CCCCC4)c3c2C)c(C)c1,inactive: -0.205%,–
CC1(C)Cc2ccccc2-c2n[nH]c(=S)n21,–,"inconclusive: 35.5 µM [falling, single point]"
Cc1ccccc1OCCC(=O)Nc1cccc(S(=O)(=O)Nc2ccccc2Cl)c1,inconclusive: 2.78%,–
